The record followed here is publication PMC9503660.

The exact form of at least one protein or probe is not confirmed.

The data set relates to cytochrome c. As to the kind of experiment: thioflavin T displacement fluorescence (loss of ThT/G4 signal on cyt c addition). As to conditions: ThT, 1 mM K+, signal restored by trypsin digestion of cyt c; 50 mM Tris, 1 mM KCl, pH 7.5; temperature not stated; optimized 250 nM aptamer, 80 uM cyt c, 10 uM ThT, 45 min; commercial protein; folded or branched DNA.

As to “CCGTGTCTGGGGCCGACCGGCGCATTGGGTACGTTGTTGCAAAAAGGGTTAGGGTTAGGGTTAGGGC [cyt c DNA aptamer with G-quadruplex (GGGTTA repeat) tail]”, the binding result was “binds”.
